PubChem BioAssay AID1259308 | NCATS | 2017

- Screen: 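Genes whose loss raises luciferase production in HEK293 cells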 (primary screen)
- Cell system: human HEK293 embryonic kidney cells stably expressing firefly luciferase (HEK-CMV-Luc2-Hygro)
- Reagents: single siRNA against human genes, 0.8 pmol siRNA per well
- Timing: 72 h
- Read-out: 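Reporter luminescence and viable-cell signal on separate replicate plates, given as percent of non-targeting control and median/MAD z-scores, plus per-cell luciferase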
- Reading the numbers: total luciferase, z-score and total luciferase, % of control: higher = more reporter protein produced; luciferase per cell, z-score: higher = more reporter output per viable cell; viable cells, % of control: higher = more viable cells
- Rule for the call: 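Active when the median/MAD z-score for overall luciferase is greater than 3; a gene was taken forward for validation with new siRNAs if at least two of its three siRNAs passed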
- Meaning of the calls: active = raised luciferase; inactive = no rise
The deposit covers about 59,000 reagents; below is an unselected part. About 1,510 of them (2.6%) count as active. 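Calls use total luciferase alone and ignore viability, so some active siRNAs may act by altering cell number.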 The numbers tell different reagents against one gene apart.

gene | siRNA no. | total luciferase, z-score | total luciferase, % of control | luciferase per cell, z-score | viable cells, % of control | Outcome
ZKSCAN8 | 1 | 3.82 | 158 | 2.83 | 83.7 | active
ZKSCAN8 | 2 | -0.151 | 78.9 | -0.318 | 95.8 | inactive
ZKSCAN8 | 3 | -0.242 | 77.1 | -0.329 | 93.9 | inactive
TUBG1 | 1 | 0.0573 | 83 | -0.772 | 114 | inactive
TUBG1 | 2 | -1.64 | 49.3 | -1.66 | 85.2 | inactive
TUBG1 | 3 | 1.44 | 111 | 0.721 | 102 | inactive
OR2U1P | 1 | 0.616 | 94.1 | 0.138 | 101 | inactive
OR2U1P | 2 | -0.85 | 65 | -0.887 | 91.7 | inactive
OR2U1P | 3 | 0.483 | 91.5 | -0.222 | 108 | inactive
IKZF1 | 1 | 0.69 | 95.6 | 0.687 | 89.1 | inactive
IKZF1 | 2 | -1.75 | 47.2 | -1.94 | 87.8 | inactive
IKZF1 | 3 | 2.16 | 125 | 1.92 | 84 | inactive
OPRD1 | 1 | -0.786 | 66.2 | -0.0689 | 75.4 | inactive
OPRD1 | 2 | -0.711 | 67.7 | -1.03 | 99.2 | inactive
OPRD1 | 3 | -1.25 | 57 | -1.25 | 88.5 | inactive
SNX10 | 1 | 5.1 | 183 | 4.67 | 59.9 | active
SNX10 | 2 | -0.551 | 70.9 | -0.925 | 101 | inactive
SNX10 | 3 | 0.393 | 89.7 | -0.0952 | 103 | inactive
CNTN3 | 1 | -1.12 | 59.6 | -0.381 | 73.6 | inactive
CNTN3 | 2 | 0.216 | 86.2 | 0.0398 | 95.3 | inactive
CNTN3 | 3 | -0.55 | 70.9 | -0.685 | 94.9 | inactive
CYP27C1 | 1 | 0.0979 | 83.8 | -0.437 | 105 | inactive
CYP27C1 | 2 | 0.201 | 85.9 | 0.491 | 84.3 | inactive
CYP27C1 | 3 | -0.702 | 67.9 | -0.843 | 94.8 | inactive
HDHD2 | 1 | 0.572 | 93.3 | 0.188 | 99.2 | inactive
HDHD2 | 2 | -0.88 | 64.4 | 0.734 | 59.3 | inactive
HDHD2 | 3 | -0.0233 | 81.4 | -0.132 | 94.2 | inactive
SLC27A4 | 1 | 1.02 | 102 | 0.89 | 90.3 | inactive
SLC27A4 | 2 | -0.188 | 78.1 | -0.442 | 98.1 | inactive
SLC27A4 | 3 | -0.343 | 75.1 | -0.235 | 89.2 | inactive
MARCO | 1 | 0.713 | 96.1 | 0.349 | 97.9 | inactive
MARCO | 2 | 1.44 | 111 | 0.826 | 99.4 | inactive
MARCO | 3 | -1.11 | 59.9 | -0.564 | 77.6 | inactive
NOL12 | 1 | 0.828 | 98.4 | 0.254 | 103 | inactive
NOL12 | 2 | -0.148 | 78.9 | -0.373 | 97.3 | inactive
NOL12 | 3 | 0.824 | 98.3 | 0.701 | 91.3 | inactive
CEP41 | 1 | 0.935 | 100 | 1.4 | 77.6 | inactive
CEP41 | 2 | 0.384 | 89.5 | 0.107 | 97.3 | inactive
CEP41 | 3 | 0.484 | 91.5 | -0.276 | 110 | inactive
NHLH1 | 1 | 3.47 | 151 | 2.88 | 79.1 | active
NHLH1 | 2 | 0.923 | 100 | 2.3 | 61.1 | inactive
NHLH1 | 3 | 0.338 | 88.6 | -0.0389 | 100 | inactive
CYP2F1 | 1 | -0.276 | 76.4 | -0.0623 | 86.8 | inactive
CYP2F1 | 2 | 1.32 | 108 | 0.634 | 102 | inactive
CYP2F1 | 3 | -0.571 | 70.5 | -0.547 | 91 | inactive
RPL15P3 | 1 | -2.74 | 27.4 | -2 | 52 | inactive
RPL15P3 | 2 | -2.86 | 25 | -1.6 | 42.6 | inactive
RPL15P3 | 3 | -2.7 | 28.3 | -2.09 | 54.8 | inactive
H6PD | 1 | -0.715 | 67.7 | -1.01 | 98.6 | inactive
H6PD | 2 | -0.942 | 63.1 | -1.23 | 97.5 | inactive
H6PD | 3 | -0.965 | 62.7 | 0.322 | 64.4 | inactive
LRP11 | 1 | -1.06 | 60.7 | -0.255 | 72.6 | inactive
LRP11 | 2 | 0.551 | 92.8 | 0.428 | 92.7 | inactive
LRP11 | 3 | -1.63 | 49.4 | -0.913 | 70.2 | inactive
ARF6 | 1 | -0.679 | 68.4 | -0.593 | 89.3 | inactive
ARF6 | 2 | -0.0405 | 81.1 | -0.361 | 99.6 | inactive
ARF6 | 3 | -1.29 | 56.2 | -2.08 | 109 | inactive
